Assay results from patent US20250313643A1 (UNM RAINFOREST INNOVATIONS, published 2025).
No constants are given. Whether binding was seen depends on the method and setting. Some results given as binding are weak or reduced against the parent protein; the word gives no strength.

Chains of the proteins cited; added tags and fusions are not shown. Lines headed by an entry give the natural chain unless they say otherwise; changes in a name come on top.
UniProt P32239: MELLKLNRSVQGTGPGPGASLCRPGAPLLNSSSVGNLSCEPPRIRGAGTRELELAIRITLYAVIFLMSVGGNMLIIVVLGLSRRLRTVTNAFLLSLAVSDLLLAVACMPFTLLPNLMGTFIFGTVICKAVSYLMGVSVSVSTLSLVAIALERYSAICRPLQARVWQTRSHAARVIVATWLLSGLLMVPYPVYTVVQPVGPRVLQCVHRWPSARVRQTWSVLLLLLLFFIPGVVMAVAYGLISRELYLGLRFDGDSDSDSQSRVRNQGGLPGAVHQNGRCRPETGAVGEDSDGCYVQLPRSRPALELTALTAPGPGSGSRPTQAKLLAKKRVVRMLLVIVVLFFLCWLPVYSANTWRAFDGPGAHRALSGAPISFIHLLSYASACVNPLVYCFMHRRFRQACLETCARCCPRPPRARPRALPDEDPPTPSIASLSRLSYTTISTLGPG

Molecular target: T1, human CCKBR extracellular peptide (human, UniProt P32239 39-53)
T1 construct: domain: extracellular fragment of human CCK-BR; also called human peptide; human CCKBR peptide
Assay: indirect ELISA on human CCKBR peptide, OD450nm against nM scFv

Binder | binding
mscFv77-2 Parental (scFv, V domains shown, Murine single-chain Fv; It has a kappa light chain; also called murine parent scFv; parental scFv) VH: EVQLQQAGAELVRSGASVKLSCTASGFNIKDYYIHWVKQRPEQGLEWIGWIDPENGDTEYAPKFQGKATMTADTSSNTAYLQLSSLTSEDTAVYYCNAGGRFAYWGQGTLVTVSA VL: DIVMTQSPSSLSVSAGEKVTMSCKSSQSLLNSGNQKNYLAWYQQKPGQPPKLLIYGASTRESGVPDRFTGSGSGTDFTLTISSVQAEDLAVYYCQNDHSYPYTFGGGTKLEIK | binds
scFv77-2 hu HC2-LC3 (scFv, also called humanized CCKBR scFv HC2-LC3; CCKBR hscFv HC2-LC3) scFv: MAQVQLVQSGAEVKKPGASVKVSCKASGFNIKDYYIHWVRQAPGQGLEWIGWIDPENGDTEYAPKFQGRATMTADTSISTAYMELSRLRSDDTAVYYCNAGGRFAYWGQGTLVTVSSGGGGSGGGGSGGGGSDIQMTQSPSTLSASVGDRVTITCKSSQSLLNSGNQKNYLAWYQQKPGKAPKLLIYGASTRESGVPSRFSGSGSGTEFTLTISSLQPDDFATYYCQNDHSYPYTFGGGTKVEIKENLYFQGAAALEHHHHHH | binds
